# Results published in PubChem BioAssay AID504648 (National Center for Advancing Translational Sciences (NCATS), 2011).
# Screen size: about 390,000 compounds; about 610 (0.16%) were called active. A call without a number means that no potency is given here. This list was built around the results that the source calls inconclusive (neither active nor inactive); the mix of calls is not that of the screen. The call rests on the fitted dose curve; in most records, active means well fitted inhibition curve with a large enough effect; inconclusive means small, poorly fitted or top-dose-only effect, or effect the other way, or another doubt; inactive means no such curve, though single readings can be large or run the other way. Where the call is inconclusive, the potency comes from a doubtful curve fit.
# Assay: Nrf2 qHTS screen for inhibitors: counterscreen for cytotoxicity
# Conditions: A549 ARE-Fluc cells, CellTiter-Fluor viability, 18-24 h; series mostly up to 46 µM
# Method in brief: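 Cytotoxicity counterscreen: CellTiter-Fluor fluorescence was measured in A549 ARE_Fluc cells after 18-24 h of compound exposure in a concentration series. The subsequent BugLite luminescent read reports ARE-luciferase activity.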
# Potency means the concentration at half of the fitted maximal effect.
row,Structure (SMILES),Potency
1,O=C(O)c1ccc(NN=Cc2cc(=O)[nH]c(=O)[nH]2)cc1,"inconclusive: 20.6 µM [falling, single point]"
2,NC(=O)c1ncn([C@@H]2O[C@H](CO)[C@@H](O)[C@H]2O)n1,inactive
3,NC(=O)CC[C@@H]1NC(=O)[C@@H]2CCCN2C(=O)c2cc([N+](=O)[O-])cc(I)c2NCCCC[C@@H](C(=O)NC(CC(=O)O)C(N)=O)NC1=O (stereo partly drawn),"inconclusive: 18.4 µM [falling, partial curve, poor fit]"
4,CN(CC(=O)Nc1cccc(S(=O)(=O)NC2=NCCCCC2)c1)Cc1ccc(C(C)(C)C)cc1,inactive
5,NC(=S)Cc1nc(-c2ccc(Cl)cc2)cs1,inactive
6,FC(F)(F)COc1nc(N2CCOCC2)nc(N(c2ccccc2)c2ccccc2)n1,"inconclusive: 18.4 µM [falling, partial curve, poor fit]"
7,CN(CC1CCCO1)S(=O)(=O)c1ccc(C(=O)Nc2nc(-c3ccccn3)cs2)cc1 (stereo not drawn),"inconclusive: 7.31 µM [falling, partial curve]"
8,COc1ccc(Cl)cc1C(=O)Nc1ccc2nc(Nc3cccc(Cl)c3)cc(C)c2c1,inactive
9,O=C(O)CNC(=O)C1CCCN1C(=O)CNC(=O)OCc1ccccc1 (stereo not drawn),inactive
10,O=C(COC(=O)c1c2c(nc3ccccc13)/C(=C/c1cccc([N+](=O)[O-])c1)CCC2)NC1CCS(=O)(=O)C1 (stereo not drawn),inactive
11,CC[C@]12c3[nH]c4cc(-c5ccco5)ccc4c3CCN1C(=O)[C@@H](CC(=O)NCC13CC4CC(CC(C4)C1)C3)C[C@@H]2C(=O)N1CCN(C(=O)C2CC2)CC1,"inconclusive: 29.1 µM [falling, partial curve, poor fit]"
12,CN=c1scc(-c2ccco2)n1/N=C/c1ccc(O)c(O)c1,"inconclusive: 16.4 µM [falling, single point]"
13,C=C(C)C(=O)Oc1ccc(N2C(=O)[C@@H]3C4C=CC(C4)[C@@H]3C2=O)cc1,inactive
14,COc1ccc(C)cc1Nc1ccc(C(=O)O)cc1[N+](=O)[O-],"inconclusive: 8.2 µM [falling, partial curve]"
15,Cc1nn2c(SCC(=O)c3cccs3)cc(C(C)(C)C)nc2c1-c1ccccc1,"inconclusive: 23.1 µM [falling, single point]"
16,CC(=O)N=c1c(C#N)cc2c(=O)n3ccccc3nc2n1CCCOC(C)C,"inconclusive: 20.6 µM [activator, single point]"
17,Cc1cc(N/C=C/C(=O)c2ccccc2)ccc1Br,inactive
18,CCCCn1c(N)c(N(C)C(=O)c2ccc(-n3cccn3)cc2)c(=O)[nH]c1=O,inactive

# Pulled by compound from the list above:
row,Structure (SMILES),Potency
17,Cc1cc(N/C=C/C(=O)c2ccccc2)ccc1Br,inactive
5,NC(=S)Cc1nc(-c2ccc(Cl)cc2)cs1,inactive
